Test results reported in the supplement of paper PMC10849652.
This is one part of the list.

By UniProt entry, the sequences of proteins in these tests, tags left out. Where a name states a change or a piece, a line headed by the entry shows the natural chain unless it says otherwise.
UniProt Q9H900: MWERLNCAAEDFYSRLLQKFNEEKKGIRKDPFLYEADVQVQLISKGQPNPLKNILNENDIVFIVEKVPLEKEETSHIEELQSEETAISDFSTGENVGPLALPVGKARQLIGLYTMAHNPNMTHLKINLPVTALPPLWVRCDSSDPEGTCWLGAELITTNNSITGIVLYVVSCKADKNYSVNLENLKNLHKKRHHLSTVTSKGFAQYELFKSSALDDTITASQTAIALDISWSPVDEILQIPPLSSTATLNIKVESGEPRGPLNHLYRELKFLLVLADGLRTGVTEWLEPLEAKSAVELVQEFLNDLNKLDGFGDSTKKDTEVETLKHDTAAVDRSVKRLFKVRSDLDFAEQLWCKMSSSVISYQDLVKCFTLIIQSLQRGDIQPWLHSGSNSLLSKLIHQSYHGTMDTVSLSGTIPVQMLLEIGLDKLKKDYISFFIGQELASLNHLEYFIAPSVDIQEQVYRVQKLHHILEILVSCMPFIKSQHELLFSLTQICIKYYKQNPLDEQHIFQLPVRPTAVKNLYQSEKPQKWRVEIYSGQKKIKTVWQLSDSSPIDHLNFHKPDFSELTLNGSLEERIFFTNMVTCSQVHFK
UniProt O95218: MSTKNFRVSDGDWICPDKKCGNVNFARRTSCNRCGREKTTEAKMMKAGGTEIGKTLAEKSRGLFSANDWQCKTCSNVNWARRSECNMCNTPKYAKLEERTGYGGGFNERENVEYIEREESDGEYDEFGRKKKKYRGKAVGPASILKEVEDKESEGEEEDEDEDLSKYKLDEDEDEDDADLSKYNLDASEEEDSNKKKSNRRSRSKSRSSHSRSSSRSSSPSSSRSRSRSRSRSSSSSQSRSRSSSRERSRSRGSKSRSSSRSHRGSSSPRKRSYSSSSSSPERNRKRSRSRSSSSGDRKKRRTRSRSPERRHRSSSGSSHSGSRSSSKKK
UniProt O43264: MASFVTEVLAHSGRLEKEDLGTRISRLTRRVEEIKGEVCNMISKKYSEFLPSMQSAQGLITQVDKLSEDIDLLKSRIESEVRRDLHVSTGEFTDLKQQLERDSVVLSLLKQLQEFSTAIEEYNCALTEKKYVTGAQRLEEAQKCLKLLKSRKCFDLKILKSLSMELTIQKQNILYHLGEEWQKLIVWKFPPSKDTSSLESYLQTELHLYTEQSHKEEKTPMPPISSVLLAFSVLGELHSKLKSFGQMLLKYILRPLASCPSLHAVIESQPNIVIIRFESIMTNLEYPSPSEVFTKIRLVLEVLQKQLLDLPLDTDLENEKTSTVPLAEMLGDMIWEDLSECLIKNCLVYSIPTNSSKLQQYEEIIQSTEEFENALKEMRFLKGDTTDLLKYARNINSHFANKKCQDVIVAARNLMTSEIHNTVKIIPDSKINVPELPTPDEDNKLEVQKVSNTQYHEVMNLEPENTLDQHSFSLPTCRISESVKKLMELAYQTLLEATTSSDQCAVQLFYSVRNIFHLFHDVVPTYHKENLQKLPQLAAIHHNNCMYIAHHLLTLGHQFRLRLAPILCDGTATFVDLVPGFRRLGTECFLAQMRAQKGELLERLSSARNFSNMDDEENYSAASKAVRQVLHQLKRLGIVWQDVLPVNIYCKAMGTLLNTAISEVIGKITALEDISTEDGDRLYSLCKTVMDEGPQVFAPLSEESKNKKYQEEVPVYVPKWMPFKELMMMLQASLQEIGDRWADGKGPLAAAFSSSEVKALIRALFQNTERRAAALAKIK
UniProt Q8NB15: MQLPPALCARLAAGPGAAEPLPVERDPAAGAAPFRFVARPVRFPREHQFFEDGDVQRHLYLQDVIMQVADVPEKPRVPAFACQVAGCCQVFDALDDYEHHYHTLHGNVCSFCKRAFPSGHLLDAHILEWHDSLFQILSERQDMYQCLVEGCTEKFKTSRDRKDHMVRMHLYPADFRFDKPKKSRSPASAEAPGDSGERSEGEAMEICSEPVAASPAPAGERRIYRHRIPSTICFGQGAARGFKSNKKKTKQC
UniProt Q499Z4: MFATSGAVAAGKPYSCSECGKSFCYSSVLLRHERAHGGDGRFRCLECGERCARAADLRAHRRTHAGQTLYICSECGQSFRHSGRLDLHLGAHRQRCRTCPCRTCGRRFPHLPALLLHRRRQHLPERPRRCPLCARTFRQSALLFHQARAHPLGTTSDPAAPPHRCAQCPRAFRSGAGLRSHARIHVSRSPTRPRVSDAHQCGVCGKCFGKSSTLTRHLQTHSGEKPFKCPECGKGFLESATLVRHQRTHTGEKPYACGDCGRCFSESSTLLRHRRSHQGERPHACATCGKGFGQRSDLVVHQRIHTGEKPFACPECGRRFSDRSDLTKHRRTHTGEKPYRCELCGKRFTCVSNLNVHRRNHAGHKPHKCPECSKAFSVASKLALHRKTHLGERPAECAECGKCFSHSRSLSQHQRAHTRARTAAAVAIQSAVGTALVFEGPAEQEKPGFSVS
UniProt O43670: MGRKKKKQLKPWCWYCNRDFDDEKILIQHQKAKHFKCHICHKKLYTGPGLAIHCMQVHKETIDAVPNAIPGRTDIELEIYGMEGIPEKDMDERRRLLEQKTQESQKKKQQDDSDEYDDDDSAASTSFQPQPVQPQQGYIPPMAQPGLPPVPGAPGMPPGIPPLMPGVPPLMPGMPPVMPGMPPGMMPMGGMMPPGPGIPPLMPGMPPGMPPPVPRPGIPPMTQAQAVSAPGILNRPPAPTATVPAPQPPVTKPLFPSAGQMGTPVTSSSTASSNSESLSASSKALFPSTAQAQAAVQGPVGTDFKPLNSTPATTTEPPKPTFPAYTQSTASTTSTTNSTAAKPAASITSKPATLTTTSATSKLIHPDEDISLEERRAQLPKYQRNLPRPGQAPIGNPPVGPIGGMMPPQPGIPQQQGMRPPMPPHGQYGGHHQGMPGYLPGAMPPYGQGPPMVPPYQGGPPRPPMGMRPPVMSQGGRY
UniProt Q86UK7: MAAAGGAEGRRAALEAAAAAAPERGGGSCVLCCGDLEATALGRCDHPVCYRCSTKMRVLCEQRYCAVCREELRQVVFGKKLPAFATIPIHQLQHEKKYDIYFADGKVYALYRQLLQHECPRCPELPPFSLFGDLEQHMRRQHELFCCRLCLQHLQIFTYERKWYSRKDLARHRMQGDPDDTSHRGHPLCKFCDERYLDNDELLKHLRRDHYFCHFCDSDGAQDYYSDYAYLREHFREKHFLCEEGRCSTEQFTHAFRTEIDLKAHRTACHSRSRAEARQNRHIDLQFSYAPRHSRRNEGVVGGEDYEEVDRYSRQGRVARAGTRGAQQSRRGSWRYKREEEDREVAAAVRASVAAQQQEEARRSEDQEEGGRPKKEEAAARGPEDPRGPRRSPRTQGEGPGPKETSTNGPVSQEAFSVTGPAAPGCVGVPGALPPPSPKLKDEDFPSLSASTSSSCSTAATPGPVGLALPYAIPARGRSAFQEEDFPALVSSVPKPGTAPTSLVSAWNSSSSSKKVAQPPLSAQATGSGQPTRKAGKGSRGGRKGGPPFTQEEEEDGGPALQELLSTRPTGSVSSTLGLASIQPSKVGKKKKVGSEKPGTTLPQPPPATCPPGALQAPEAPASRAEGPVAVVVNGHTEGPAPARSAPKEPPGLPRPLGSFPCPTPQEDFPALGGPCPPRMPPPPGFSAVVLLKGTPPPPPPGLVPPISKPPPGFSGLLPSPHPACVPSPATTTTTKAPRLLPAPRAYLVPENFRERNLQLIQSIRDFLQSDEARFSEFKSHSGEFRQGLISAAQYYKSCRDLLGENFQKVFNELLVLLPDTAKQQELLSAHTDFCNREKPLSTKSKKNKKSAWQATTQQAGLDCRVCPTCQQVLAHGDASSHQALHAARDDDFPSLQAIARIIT
UniProt Q9UHR6: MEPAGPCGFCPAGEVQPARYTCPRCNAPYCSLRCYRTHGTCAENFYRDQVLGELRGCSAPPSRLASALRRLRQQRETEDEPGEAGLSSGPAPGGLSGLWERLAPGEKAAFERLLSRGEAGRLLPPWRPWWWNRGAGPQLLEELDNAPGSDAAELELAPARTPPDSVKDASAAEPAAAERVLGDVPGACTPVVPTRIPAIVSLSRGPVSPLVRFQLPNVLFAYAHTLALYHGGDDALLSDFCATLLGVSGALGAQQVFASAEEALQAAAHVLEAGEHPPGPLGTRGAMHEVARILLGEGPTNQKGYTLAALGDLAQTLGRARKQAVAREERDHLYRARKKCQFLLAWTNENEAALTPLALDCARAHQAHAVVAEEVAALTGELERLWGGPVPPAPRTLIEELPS
UniProt Q9UEG4: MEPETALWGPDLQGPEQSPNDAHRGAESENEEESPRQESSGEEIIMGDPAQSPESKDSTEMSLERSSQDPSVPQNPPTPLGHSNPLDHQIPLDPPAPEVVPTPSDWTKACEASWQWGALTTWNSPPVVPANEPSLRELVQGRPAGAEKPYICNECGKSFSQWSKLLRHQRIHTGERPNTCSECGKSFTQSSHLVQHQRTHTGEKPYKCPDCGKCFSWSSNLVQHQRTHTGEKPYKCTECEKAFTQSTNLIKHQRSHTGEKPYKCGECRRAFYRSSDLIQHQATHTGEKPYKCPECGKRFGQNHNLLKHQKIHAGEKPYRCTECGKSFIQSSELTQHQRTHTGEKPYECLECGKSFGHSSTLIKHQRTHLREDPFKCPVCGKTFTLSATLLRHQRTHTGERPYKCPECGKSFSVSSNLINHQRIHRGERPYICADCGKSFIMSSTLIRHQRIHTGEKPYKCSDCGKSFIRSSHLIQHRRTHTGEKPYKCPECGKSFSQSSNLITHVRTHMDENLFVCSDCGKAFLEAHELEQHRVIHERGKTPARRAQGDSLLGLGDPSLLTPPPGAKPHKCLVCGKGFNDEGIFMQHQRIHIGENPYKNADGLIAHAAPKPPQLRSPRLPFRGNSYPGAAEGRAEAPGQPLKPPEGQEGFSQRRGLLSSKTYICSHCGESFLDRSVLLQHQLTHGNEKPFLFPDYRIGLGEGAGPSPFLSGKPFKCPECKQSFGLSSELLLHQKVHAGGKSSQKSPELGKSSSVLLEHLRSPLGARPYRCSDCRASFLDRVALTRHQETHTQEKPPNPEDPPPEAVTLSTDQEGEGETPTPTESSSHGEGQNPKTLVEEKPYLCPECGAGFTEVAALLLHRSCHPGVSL
UniProt Q6DD87: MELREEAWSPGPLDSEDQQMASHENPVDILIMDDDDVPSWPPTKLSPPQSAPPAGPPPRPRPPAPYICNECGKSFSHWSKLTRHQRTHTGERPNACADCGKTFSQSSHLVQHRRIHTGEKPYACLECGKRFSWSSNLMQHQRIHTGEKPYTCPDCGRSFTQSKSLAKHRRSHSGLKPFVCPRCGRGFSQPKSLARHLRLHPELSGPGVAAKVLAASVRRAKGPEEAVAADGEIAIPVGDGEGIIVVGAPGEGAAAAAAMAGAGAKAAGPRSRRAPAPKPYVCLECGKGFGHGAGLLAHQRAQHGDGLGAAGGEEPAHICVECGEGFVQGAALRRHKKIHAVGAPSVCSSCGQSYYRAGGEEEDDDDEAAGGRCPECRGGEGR
UniProt A6NFI3: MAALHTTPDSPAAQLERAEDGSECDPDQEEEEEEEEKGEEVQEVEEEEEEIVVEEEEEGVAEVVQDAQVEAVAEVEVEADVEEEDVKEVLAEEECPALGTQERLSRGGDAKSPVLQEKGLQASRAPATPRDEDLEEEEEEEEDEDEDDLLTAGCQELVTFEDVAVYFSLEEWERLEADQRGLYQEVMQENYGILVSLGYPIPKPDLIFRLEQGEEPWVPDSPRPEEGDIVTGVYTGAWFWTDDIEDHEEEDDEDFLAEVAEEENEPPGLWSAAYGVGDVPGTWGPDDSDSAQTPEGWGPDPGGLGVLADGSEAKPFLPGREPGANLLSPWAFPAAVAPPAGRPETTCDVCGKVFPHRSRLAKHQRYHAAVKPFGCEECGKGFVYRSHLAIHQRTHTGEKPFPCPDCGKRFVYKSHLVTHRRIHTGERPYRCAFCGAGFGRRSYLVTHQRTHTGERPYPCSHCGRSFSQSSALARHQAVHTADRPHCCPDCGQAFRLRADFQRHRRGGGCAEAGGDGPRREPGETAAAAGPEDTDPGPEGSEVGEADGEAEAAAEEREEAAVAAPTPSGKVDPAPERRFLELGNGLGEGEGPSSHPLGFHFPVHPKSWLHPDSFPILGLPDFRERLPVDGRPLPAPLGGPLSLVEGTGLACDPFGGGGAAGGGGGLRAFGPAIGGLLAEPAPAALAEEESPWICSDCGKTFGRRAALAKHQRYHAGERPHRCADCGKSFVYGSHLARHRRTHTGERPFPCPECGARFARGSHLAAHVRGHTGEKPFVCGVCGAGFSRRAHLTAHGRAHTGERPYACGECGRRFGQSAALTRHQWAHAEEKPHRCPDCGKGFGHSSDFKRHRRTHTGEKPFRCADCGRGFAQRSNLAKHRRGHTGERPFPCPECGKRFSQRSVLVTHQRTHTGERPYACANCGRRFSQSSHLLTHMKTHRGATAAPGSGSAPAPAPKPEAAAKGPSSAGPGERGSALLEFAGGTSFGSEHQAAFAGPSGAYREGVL

Key:
Assay in all cases: log2 fold change, soluble protein after heating vs DMSO (PISA); higher = thermal stabilisation; K562 lysate, 10 uM; active = over 0.2 and 3.5 SD of the protein, either way, in both replicates (recomputed)
[1] = compound: C#Cc1cccc(Nc2ncnc3cc(OCCOC)c(OCCOC)cc23)c1 [erlotinib]
How it was run: (§1)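 Soluble protein was defined as the supernatant remaining after 21,000xg for 90 min, following pooling of heated aliquots and adjustment to 0.5% NP-40 at 4°C. Before that, crude K562 extract at 1 mg/mL protein in PBS pH 7.4 with 1 mM MgCl2 was treated with 10 μM compound for 30 min and heated for 3 min across 48°C-58°C. Quantification used TMTpro 16plex LC-MS/MS with channel sums equalised, and values are log-two fold changes in thermal stability relative to solvent controls from duplicates.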

[2] = compound: C/C(=N\NC(=O)C1=CC(=CC=C1)S(=O)(=O)N2CCOCC2)/C3=C(C=CC(=C3)Cl)O
How it was run: as §1

[3] = compound: C1=CC(=CC=C1C2=NC3=C(N2)C=C(C=C3)C(=O)N)OC4=CC=C(C=C4)Cl
How it was run: as §1

[4] = compound: C1=CC2=C(C=CC(=C2)/C=C\3/C(=O)NC(=NCC4=CC=CS4)S3)N=C1
How it was run: as §1

[5] = compound: C1=CC2=NC=CN=C2C=C1/C=C/3\C(=O)NC(=O)S3
How it was run: as §1

[6] = compound: C1=CC=C(C=C1)C2=NC(=C(N2)C3=CC=NC=C3)C4=CC(=C(C=C4)Cl)O
How it was run: as §1

[7] = compound: C1=CC=C2C(=C1)C3=NNC4=CC=CC(=C43)C2=O
How it was run: as §1

[8] = compound: C1CCN(C1)C(=O)NC2=CC=CC(=C2)NC3=NC=C(C(=N3)NCCC4=CN=CN4)Br
How it was run: as §1

[9] = compound: C1CN(CCC1(CC2=CC=C(C=C2)Cl)N)C3=NC=NC4=C3C=CN4
How it was run: as §1

[10] = compound: C1COCCN1CCN2C3=CC=CC=C3N=C2NC(=O)C4=CC(=CC=C4)[N+](=O)[O-] [IRAK-1-4 Inhibitor I]
How it was run: as §1

[11] = compound: C=CC(=O)N1CCC[C@@H](n2nc(-c3ccc(Oc4ccccc4)cc3)c3c(N)ncnc32)C1 [ibrutinib]
How it was run: as §1

[12] = compound: CC(=O)c1cnc2ccc(-c3cc(Cl)c(O)c(Cl)c3)nc2c1N[C@H]1CC[C@H](CN(C)C)CC1
How it was run: as §1

[13] = compound: CC(C)(C)Cn1c(N)nc2ccc(-c3[nH]c(C(C)(C)C)nc3-c3ccc(F)cc3)nc21 [ralimetinib]
How it was run: as §1

[14] = compound: CC(C)(O)CC(=O)NCCn1ccc2ncnc(Nc3ccc(Oc4cccc(C(F)(F)F)c4)c(Cl)c3)c21
How it was run: as §1

[15] = compound: CC(C)C1=C2N=C(C=C(N2N=C1)NCC3=CC=CC=C3)NCCCCCCN
How it was run: as §1

[16] = compound: CC1=C(C(CC(=O)N1)C2=CC=C(C=C2)C(F)(F)F)C(=O)NC3=C(C=C4C(=C3)C=NN4)F
How it was run: as §1

[17] = compound: CC1=C(C2=C(C=C1)C(=O)C3=CC=CC=C3N2CCCN)C
How it was run: as §1

[18] = compound: CC1=C(C=C(C=C1)NC(=O)C2=CC(=CC=C2)C(C)(C)C#N)NC3=CC4=C(C=C3)N=CN(C4=O)C
How it was run: as §1

[19] = compound: CC1=C(C=C(C=C1)NC(=O)C2=CC(=CC=C2)N(C)C)NC(=O)C3=CC=C(C=C3)O
How it was run: as §1

[20] = compound: CC1=CC=C(C=C1)SC2=C3C=C(SC3=CN=C2)C(=O)N
How it was run: as §1

Measured: log2 fold change

ZWILCH (UniProt Q9H900)
inactive: [1] -0.008 | [2] 0.003 | [3] -0.007 | [4] 0.025 | [5] -0.008 | [6] 0.009 | [7] -0.069 | [8] 0.023 | [9] -0.006 | [10] -0.032 | [11] 0.02 | [12] 0.016 | [13] -0.021 | [14] -0.043 | [15] -0.031 | [16] 0.038 | [17] -0.004 | [18] -0.008 | [19] 0.027 | [20] 0.003

ZRANB2 (UniProt O95218)
inactive: [1] -0.017 | [2] -0.009 | [3] 0.024 | [4] -0.025 | [5] 0.005 | [6] 0.004 | [7] 0.023 | [8] 0.021 | [9] 0.011 | [10] 0.01 | [11] -0.027 | [12] -0.012 | [13] -0.04 | [14] -0.034 | [15] -0.024 | [16] -0.032 | [17] 0.023 | [18] 0.063 | [19] 0.013 | [20] -0.01

ZNF24 (UniProt P17028)
inactive: [1] 0.054 | [2] -0.088 | [3] -0.021 | [4] -0.024 | [5] -0.092 | [6] -0.007 | [7] 0.061 | [8] -0.018 | [9] 0.003 | [10] 0.071 | [11] 0.011 | [12] 0.036 | [13] 0.006 | [14] 0.011 | [15] 0.035 | [16] 0.037 | [17] -0.005 | [18] 0.037 | [19] 0.012 | [20] 0.01

ZW10 (UniProt O43264)
inactive: [1] 0.046 | [2] -0.013 | [3] 0.003 | [4] 0.026 | [5] -0.005 | [6] 0.001 | [7] -0.037 | [8] -0.044 | [9] 0.017 | [10] 0.027 | [11] 0.017 | [12] -0.01 | [13] -0.009 | [14] -0.033 | [15] -0.021 | [16] -0.009 | [17] 0 | [18] -0.006 | [19] 0.044 | [20] 0.004

ZNRD2 (UniProt G3V1B8)
inactive: [1] -0.005 | [2] -0.02 | [3] 0.029 | [4] 0.093 | [5] 0.082 | [6] 0.005 | [7] -0.074 | [8] 0.035 | [9] -0.195 | [10] -0.072 | [11] 0.021 | [12] -0.115 | [13] -0.014 | [14] -0.133 | [15] -0.094 | [16] -0.089 | [17] -0.071 | [18] 0.132 | [19] 0.013 | [20] -0.057

ZMYM3 (UniProt Q14202)
inactive: [1] 0.031 | [2] -0.011 | [3] -0.051 | [4] -0.038 | [5] -0.001 | [6] -0.003 | [7] -0.015 | [8] -0.026 | [9] 0 | [10] -0.001 | [11] 0.054 | [12] -0.006 | [13] 0.023 | [14] -0.01 | [15] -0.009 | [16] 0.022 | [17] -0.007 | [18] 0.02 | [19] 0.003 | [20] -0.032

ZNF511 (UniProt Q8NB15)
inactive: [1] 0.029 | [2] 0.069 | [3] 0.071 | [4] -0.39 | [5] -0.029 | [6] -0.006 | [7] 0.091 | [8] 0.099 | [9] 0.132 | [10] 0.07 | [11] 0.023 | [12] -0.03 | [13] 0.029 | [14] -0.074 | [15] -0.039 | [16] 0.045 | [17] -0.076 | [18] -0.026 | [19] -0.007 | [20] 0.126

ZYX (UniProt Q15942)
inactive: [1] -0.013 | [2] -0.04 | [3] 0.02 | [4] 0 | [5] 0.008 | [6] 0.042 | [7] 0 | [8] 0.02 | [9] 0.035 | [10] 0.033 | [11] 0.009 | [12] 0.015 | [13] -0.007 | [14] 0.005 | [15] -0.001 | [16] -0.015 | [17] -0.015 | [18] 0.039 | [19] 0.01 | [20] -0.005

ZNF672 (UniProt Q499Z4)
inactive: [1] -0.086 | [2] 0 | [3] -0.054 | [4] -0.069 | [5] -0.081 | [6] -0.018 | [7] 0.105 | [8] -0.013 | [9] 0.054 | [10] 0.021 | [11] -0.068 | [12] -0.022 | [13] -0.016 | [14] 0.043 | [15] 0.112 | [16] -0.005 | [17] -0.131 | [18] -0.042 | [19] -0.036 | [20] 0.014

ZNF207 isoform 2 (UniProt O43670)
inactive: [1] 0.02 | [2] -0.041 | [3] 0.084 | [4] 0.101 | [5] -0.036 | [6] -0.019 | [7] -0.129 | [8] -0.069 | [9] 0.047 | [10] 0.038 | [11] 0.042 | [12] -0.03 | [13] 0.016 | [14] -0.165 | [15] -0.017 | [16] -0.025 | [17] -0.016 | [18] 0.067 | [19] -0.006 | [20] -0.048

ZNF428 (UniProt M0QXZ5)
inactive: [1] 0.006 | [2] -0.041 | [3] 0.035 | [4] 0 | [5] -0.008 | [6] 0.039 | [7] -0.065 | [8] -0.05 | [9] -0.007 | [10] -0.027 | [11] 0.055 | [12] 0.009 | [13] -0.048 | [14] -0.103 | [15] -0.062 | [16] -0.076 | [17] -0.068 | [18] 0.057 | [19] -0.064 | [20] -0.018

ZNF598 isoform 3 (UniProt Q86UK7)
inactive: [1] -0.001 | [2] -0.003 | [3] 0.007 | [4] -0.007 | [5] -0.045 | [6] 0.006 | [7] -0.064 | [8] -0.036 | [9] -0.002 | [10] 0.029 | [11] 0.032 | [12] -0.007 | [13] -0.001 | [14] -0.017 | [15] 0.013 | [16] 0.019 | [17] 0.005 | [18] -0.001 | [19] -0.004 | [20] 0

2 entries picked at random from those above, as already listed:
ZNF511 (UniProt Q8NB15)
inactive: [1] 0.029 | [2] 0.069 | [3] 0.071 | [4] -0.39 | [5] -0.029 | [6] -0.006 | [7] 0.091 | [8] 0.099 | [9] 0.132 | [10] 0.07 | [11] 0.023 | [12] -0.03 | [13] 0.029 | [14] -0.074 | [15] -0.039 | [16] 0.045 | [17] -0.076 | [18] -0.026 | [19] -0.007 | [20] 0.126

ZNF24 (UniProt P17028)
inactive: [1] 0.054 | [2] -0.088 | [3] -0.021 | [4] -0.024 | [5] -0.092 | [6] -0.007 | [7] 0.061 | [8] -0.018 | [9] 0.003 | [10] 0.071 | [11] 0.011 | [12] 0.036 | [13] 0.006 | [14] 0.011 | [15] 0.035 | [16] 0.037 | [17] -0.005 | [18] 0.037 | [19] 0.012 | [20] 0.01

(list continues)

ZNHIT2 (UniProt Q9UHR6)
inactive: [1] -0.289 | [2] 0.174 | [3] 0.096 | [4] 0 | [5] 0.023 | [6] 0.051 | [7] -0.036 | [8] -0.029 | [9] -0.041 | [10] -0.062 | [11] 0.091 | [12] -0.08 | [13] 0.007 | [14] 0.029 | [15] 0.151 | [16] -0.01 | [17] 0.01 | [18] 0.046 | [19] -0.013 | [20] 0.014

ZNF629 (UniProt Q9UEG4)
inactive: [1] -0.032 | [2] 0.004 | [3] 0.145 | [4] -0.028 | [5] -0.085 | [6] -0.035 | [7] 0.006 | [8] -0.03 | [9] 0.002 | [10] 0.015 | [11] 0.047 | [12] -0.014 | [13] 0.037 | [14] -0.084 | [15] -0.027 | [16] -0.046 | [17] -0.04 | [18] 0.011 | [19] -0.013 | [20] -0.02

ZNF787 (UniProt Q6DD87)
inactive: [1] -0.041 | [2] 0.074 | [3] 0.003 | [4] -0.032 | [5] -0.044 | [6] -0.026 | [7] -0.31 | [8] -0.018 | [9] -0.04 | [10] 0.03 | [11] 0.029 | [12] 0.081 | [13] 0 | [14] -0.002 | [15] -0.086 | [16] -0.165 | [17] -0.022 | [18] -0.007 | [19] 0.042 | [20] -0.015

ZNF316 (UniProt A6NFI3)
inactive: [1] -0.007 | [2] -0.096 | [3] 0.049 | [4] 0.062 | [5] 0.052 | [6] 0.152 | [7] -0.146 | [8] -0.113 | [9] -0.075 | [10] -0.036 | [11] -0.028 | [12] -0.023 | [13] 0.064 | [14] 0.078 | [15] 0.037 | [16] 0.057 | [17] -0.165 | [18] 0.035 | [19] -0.044 | [20] 0.058
